Laboratory results: paper PMC6972931, “YqfB protein from Escherichia coli: an atypical amidohydrolase active towards N^4-acylcytosine derivatives” (Scientific Reports, 2020)
No constants are given. Whether binding was seen depends on the method and setting.

Biological target: YqfB protein from Escherichia coli (Escherichia coli) (UniProt P67603)
Assay: SEC; Superdex 200 10/300; 0.5 mL sample at 1 mg ml^-1; 50 mM Tris-HCl pH 8.0, 100 mM NaCl; 0.3 ml min^-1; standards apoferritin, albumin, carbonic anhydrase; both purified

B1: YqfB protein from Escherichia coli (enzyme, UniProt P67603 1-103)
chain: MQPNDITFFQRFQDDILAGRKTITIRDESESHFKTGDVLRVGRFEDDGYFCTIEVTATSTVTLDTLTEKHAEQENMTLTELKKVIADIYPGQTQFYVIEFKCL
- binding: no binding (tested: 1 mg ml^-1)
